Data: paper PMC11844276

The chains behind the UniProt entries cited, without tags or fusion partners.
UniProt Q8K019: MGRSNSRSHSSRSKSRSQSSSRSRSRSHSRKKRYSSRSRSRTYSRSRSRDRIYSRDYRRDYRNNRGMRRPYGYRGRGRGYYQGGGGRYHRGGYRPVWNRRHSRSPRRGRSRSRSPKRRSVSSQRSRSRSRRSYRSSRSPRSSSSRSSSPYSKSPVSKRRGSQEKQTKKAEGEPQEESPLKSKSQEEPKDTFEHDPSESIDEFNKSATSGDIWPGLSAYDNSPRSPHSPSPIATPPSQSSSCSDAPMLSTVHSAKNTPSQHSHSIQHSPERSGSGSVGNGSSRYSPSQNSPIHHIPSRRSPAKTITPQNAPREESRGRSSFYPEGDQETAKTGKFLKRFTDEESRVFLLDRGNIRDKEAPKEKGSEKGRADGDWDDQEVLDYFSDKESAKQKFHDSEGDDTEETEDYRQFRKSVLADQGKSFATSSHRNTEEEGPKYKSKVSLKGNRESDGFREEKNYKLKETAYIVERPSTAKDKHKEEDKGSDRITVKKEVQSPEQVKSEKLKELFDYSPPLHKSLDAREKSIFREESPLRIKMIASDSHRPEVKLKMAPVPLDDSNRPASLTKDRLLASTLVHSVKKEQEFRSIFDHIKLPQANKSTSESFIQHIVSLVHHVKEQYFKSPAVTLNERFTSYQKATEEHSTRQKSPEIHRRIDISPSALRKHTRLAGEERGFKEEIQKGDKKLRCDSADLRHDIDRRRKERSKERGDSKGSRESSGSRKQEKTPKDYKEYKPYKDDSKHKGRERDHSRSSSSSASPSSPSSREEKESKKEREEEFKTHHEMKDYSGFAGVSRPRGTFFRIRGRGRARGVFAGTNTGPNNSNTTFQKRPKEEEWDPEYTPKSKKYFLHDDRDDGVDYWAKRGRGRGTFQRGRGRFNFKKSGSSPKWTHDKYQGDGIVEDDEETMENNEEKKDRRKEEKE
UniProt Q9JHS3: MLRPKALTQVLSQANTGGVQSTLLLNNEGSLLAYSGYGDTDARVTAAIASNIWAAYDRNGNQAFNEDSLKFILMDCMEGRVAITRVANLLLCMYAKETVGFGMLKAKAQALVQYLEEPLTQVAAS

Molecular target: B-cell lymphoma-2-associated transcription factor 1 (BCLAF1), Flag-tagged (UniProt Q8K019)
Experiment: affinity purification with mass spectrometry; immunoprecipitation of BCLAF1 from NP-40 lysate of mouse primary chondrocytes on protein A/G magnetic beads with antibody, overnight at 4 °C; immunoprecipitates subjected to protein mass spectrometry

Ragulator complex protein LAMTOR2 (late endosomal/lysosomal adaptor and MAPK and MTOR activator 2), endogenous (from UniProt Q9JHS3 1-125)
binding: binds

No constants are given. Whether binding was seen depends on the method and setting. Binding seen in cells or lysates may run through a third protein. These calls come from enrichment with a bait or labelling near it, and not all partners need be listed.
